# Results taken from the supplement of paper PMC10470496.
# Structures can show the parent of a compound that is named as a salt. The list shows a part of the results. Many values rest on one well or one pass, so single values are uncertain.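 The three strains are clinical Candida auris isolates from the CDC resistance isolate bank, from clades III, IV and I, grown in RPMI-1640 at 35°C. Growth is background-corrected OD600 relative to vehicle-only wells on the same plate; a hit meant over 50% inhibition in at least two strains plus a plate-corrected B-score above 0.1.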
# Columns and labels:
# Assay in all cases: growth relative to vehicle control (OD600 ratio) (fraction); higher = less inhibition
# Conditions in all cases: 24 h
# [1] = system: C. auris AR-384
# [2] = system: C. auris AR-386
# [3] = system: C. auris AR-387
SMILES,growth ([1]; 1 µM),growth ([1]; 10 µM),growth ([2]; 1 µM),growth ([2]; 10 µM),growth ([3]; 1 µM),growth ([3]; 10 µM)
[I-].[K+] [Potassium Iodide],0.77,0.75,1.07,1.07,0.75,0.9
CN(CCOc1ccc(CC2SC(=O)NC2=O)cc1)c1ccccn1 (stereo not given) [Rosiglitazone maleate],1.2,1.31,1.23,1.19,1.09,1.09
O=C(O[C@H]1CN2CCC1CC2)N1CCc2ccccc2[C@@H]1c1ccccc1 [Solifenacin succinate],0.87,1.02,1.08,0.81,0.86,0.99
CCOc1ccc(NC(=O)CC(C)O)cc1 (stereo not given) [Bucetin],0.87,0.82,0.92,0.81,0.69,1.04
C[C@H](CCC(=O)O)[C@H]1CC[C@H]2[C@@H]3CC[C@@H]4C[C@H](O)CC[C@]4(C)[C@H]3C[C@H](O)[C@]12C [Deoxycholic acid],1.08,1.11,0.68,0.9,0.82,0.73
COc1cc2nc(N3CCN(C(=O)C4CCCO4)CC3)nc(N)c2cc1OC (stereo not given) [Terazosin HCl],0.7,0.7,0.55,0.78,0.65,0.67
CC(C)Oc1ccc2c(=O)c(-c3ccccc3)coc2c1 [Ipriflavone (Osteofix)],0.96,0.9,0.91,0.98,1.05,1.09
C[C@]12CCC3=C4CCC(=O)C=C4CC[C@H]3[C@@H]1CC[C@@]2(O)CC#N [Dienogest],0.86,0.61,0.92,1.26,0.92,1.02
CC[C@H]1OC(=O)[C@H](C)[C@@H](O[C@H]2C[C@@](C)(OC)[C@@H](O)[C@H](C)O2)[C@H](C)[C@@H](O[C@@H]2O[C@H](C)C[C@H](N(C)C)[C@H]2O)[C@](C)(O)C[C@@H](C)C(=O)[C@H](C)[C@H]2OC(=O)O[C@@]21C [Erythromycin Cyclocarbonate],0.94,0.9,0.88,0.9,0.95,1.11
O=C(/C=C/c1cccc(S(=O)(=O)Nc2ccccc2)c1)NO [Belinostat (PXD101)],0.83,1.23,0.98,0.87,0.8,1.2
O=C1CN(/N=C/c2ccc(-c3ccc([N+](=O)[O-])cc3)o2)C(=O)N1 [Dantrolene sodium hemiheptahydrate],0.81,0.76,0.89,1,0.93,1.03
Nc1[nH]cnc2ncnc1-2 [Adenine HCl],0.92,0.71,0.93,0.89,0.91,0.86
C[C@]12C=CC(=O)C=C1CC[C@@H]1[C@@H]2C(=O)C[C@@]2(C)[C@H]1CC[C@]2(O)C(=O)CO [Prednisone],1.29,0.74,0.98,1.06,1,1.01
CN(N=O)C(=O)NC1C(O)OC(CO)C(O)C1O (stereo not given) [Streptozotocin (STZ)],0.9,1.44,1.22,0.84,0.9,1.03
CO[C@H]1O[C@H](COS(=O)(=O)O)[C@@H](O[C@@H]2O[C@@H](C(=O)O)[C@@H](O[C@H]3O[C@H](COS(=O)(=O)O)[C@@H](O[C@@H]4O[C@H](C(=O)O)[C@@H](O[C@H]5O[C@H](COS(=O)(=O)O)[C@@H](O)[C@H](O)[C@H]5NS(=O)(=O)O)[C@H](O)[C@H]4O)[C@H](OS(=O)(=O)O)[C@H]3NS(=O)(=O)O)[C@H](O)[C@H]2OS(=O)(=O)O)[C@H](O)[C@H]1NS(=O)(=O)O [Fondaparinux Sodium],0.62,0.61,0.86,0.89,1.07,0.66
CC1(C)S[C@@H]2[C@H](NC(=O)[C@H](N)c3ccc(O)cc3)C(=O)N2[C@H]1C(=O)O [Amoxicillin Sodium],1.05,0.79,1.02,1.1,0.76,0.77
CCCCCOc1ccc(-c2ccc(-c3ccc(C(=O)N[C@H]4C[C@@H](O)[C@@H](O)NC(=O)[C@@H]5[C@@H](O)[C@@H](C)CN5C(=O)[C@H]([C@@H](C)O)NC(=O)[C@H]([C@H](O)[C@@H](O)c5ccc(O)cc5)NC(=O)[C@@H]5C[C@@H](O)CN5C(=O)[C@H]([C@@H](C)O)NC4=O)cc3)cc2)cc1,0.52,0.38,0.14,0.11,0.09,0.08
CN(C)CCOC(c1ccc(Cl)cc1)c1ccccn1 (stereo not given) [CarbinoxaMine Maleate],1.06,1.12,1.03,1.09,0.66,1.28
CCC(C)(C)c1ccc(CC(C)CN2C[C@@H](C)O[C@@H](C)C2)cc1 (stereo not given in full) [Amorolfine HCl],0.7,0.81,0.77,0.39,0.59,0.36
CCOC(=O)C1=C[C@]2(CC)CCCN3CCc4c(n1c1ccccc41)[C@@H]32 [Vinpocetine],1.12,0.82,0.95,0.82,0.85,0.92
CN(C)CC(c1ccc(O)cc1)C1(O)CCCCC1 (stereo not given) [Desvenlafaxine Succinate],0.95,0.96,1,1.08,0.96,0.82
NS(=O)(=O)c1cc2c(cc1Cl)NCNS2(=O)=O [Hydrochlorothiazide],0.85,1.23,1.27,1.22,1.42,1.32
Cc1ccnc2c1NC(=O)c1cccnc1N2C1CC1 [Nevirapine],0.83,1.21,1.36,1.13,1.06,0.9

SMILES,growth ([1]; 1 µM),growth ([1]; 10 µM),growth ([2]; 1 µM),growth ([2]; 10 µM),growth ([3]; 1 µM),growth ([3]; 10 µM)
CCC1=C[C@@H]2CN(C1)Cc1c([nH]c3ccccc13)[C@@](C(=O)OC)(c1cc3c(cc1OC)N(C)[C@H]1[C@@](O)(C(=O)OC)[C@H](OC(C)=O)[C@]4(CC)C=CCN5CC[C@]31[C@@H]54)C2 [Vinorelbine Tartrate],0.99,0.94,1.12,0.8,0.72,0.85
C[C@@H](O[C@H]1OCCN(Cc2nn(P(=O)(O)O)c(=O)[nH]2)[C@H]1c1ccc(F)cc1)c1cc(C(F)(F)F)cc(C(F)(F)F)c1 [Fosaprepitant dimeglumine salt],0.86,0.88,0.85,1.47,0.98,0.94
CC[C@@]1(O)C(=O)OCc2c1cc1n(c2=O)Cc2cc3c(CN(C)C)c(O)ccc3nc2-1 [Topotecan HCl],1.2,0.88,0.82,1.07,1.15,1.2
CCOC(=O)O[C@]1(C(=O)OCCl)CC[C@H]2[C@@H]3CCC4=CC(=O)C=C[C@]4(C)[C@H]3[C@@H](O)C[C@@]21C [Loteprednol etabonate],1.01,1.13,1.26,1.19,1.08,1.11
CN[C@@H]1[C@@H](O)[C@@H](O[C@@H]2[C@@H](O)[C@H](O[C@H]3OC(CN)=CC[C@H]3N)[C@@H](N)C[C@H]2N)OC[C@]1(C)O [Sisomicin sulfate],1.23,1.27,1.07,1.4,0.93,1.12
C[C@H](Oc1cc(-c2cnn(C3CCNCC3)c2)cnc1N)c1c(Cl)ccc(F)c1Cl [(S)-crizotinib],1.15,0.93,1.09,1.11,0.76,1.12
CC(C)(C#N)c1cc(Cn2cncn2)cc(C(C)(C)C#N)c1 [Anastrozole],1.37,0.91,0.81,1.14,1.13,0.99
CC[C@@H]1C(=O)N(C)c2cnc(Nc3ccc(C(=O)N[C@H]4CC[C@H](N5CCN(CC6CC6)CC5)CC4)cc3OC)nc2N1C(C)C [Volasertib (BI 6727)],0.78,0.87,0.92,0.74,1.04,1
C[N+]1(C)CCC(=C(c2ccccc2)c2ccccc2)CC1 [Diphemanil Methylsulfate],0.98,0.67,0.71,0.65,0.67,0.87
CC(C)(C)c1ccc(C(O)CCCN2CCC(C(O)(c3ccccc3)c3ccccc3)CC2)cc1 (stereo not given) [Terfenadine],1.44,1.47,1.12,0.97,0.93,1.42
OCCN1CCN(CCCN2c3ccccc3Sc3ccc(Cl)cc32)CC1 [Perphenazine],0.8,0.7,0.86,1.07,0.86,0.9
CC(C)NCC(O)COc1cccc2ccccc12 (stereo not given) [Propranolol HCl],0.81,0.66,0.98,0.6,0.71,0.67
CN1CCN(CC(=O)N2c3ccccc3C(=O)Nc3cccnc32)CC1 [Pirenzepine dihydrochloride],0.87,0.66,0.8,0.54,0.83,0.84
Nc1nc(=O)n([C@@H]2CS[C@H](CO)O2)cc1F [Emtricitabine],0.97,0.72,0.72,0.7,0.99,0.84
Clc1ccc(Nc2nnc(Cc3ccncc3)c3ccccc23)cc1 [Vatalanib (PTK787) 2HCl],0.91,1.31,1.37,1.15,1.03,1.29
O=S(=O)(O)CCSSCCS(=O)(=O)O [Dimesna],1.05,1.31,1.33,1.12,0.91,0.95
CC(C)NC[C@H](O)COc1ccc(CCOCC2CC2)cc1 [Levobetaxolol HCl],1.01,0.89,1.3,0.57,0.71,0.73
COC1=C(OC)C(=O)C(CCCCCCCCCCO)=C(C)C1=O [Idebenone],0.95,0.88,1.05,1.01,1.15,0.9
CC(C)(C)NC(=O)N[C@H](C(=O)N1C[C@H]2[C@@H]([C@H]1C(=O)NC(CC1CCC1)C(=O)C(N)=O)C2(C)C)C(C)(C)C (stereo not given in full) [Boceprevir],0.87,0.87,0.76,1.05,1.15,1.09
CCC1(c2c[nH]cn2)Cc2ccccc2C1 [Atipamezole hydrochloride],0.83,0.73,0.87,0.82,0.9,0.74
CCC(NC(C)C)C(O)c1ccc(O)c(O)c1 (stereo not given) [Isoetharine Mesylate],0.86,0.81,0.86,0.8,0.76,0.75
CCC[C@@H]1C[C@@H](C(=O)N[C@@H]([C@H]2O[C@H](SC)[C@H](OP(=O)(O)O)[C@@H](O)[C@H]2O)[C@H](C)Cl)N(C)C1 [Clindamycin Phosphate],0.9,1.14,1,0.99,0.86,1.05

# Molecules shown so far containing a cyano group:
SMILES,growth ([1]; 1 µM),growth ([1]; 10 µM),growth ([2]; 1 µM),growth ([2]; 10 µM),growth ([3]; 1 µM),growth ([3]; 10 µM)
C[C@]12CCC3=C4CCC(=O)C=C4CC[C@H]3[C@@H]1CC[C@@]2(O)CC#N [Dienogest],0.86,0.61,0.92,1.26,0.92,1.02
CC(C)(C#N)c1cc(Cn2cncn2)cc(C(C)(C)C#N)c1 [Anastrozole],1.37,0.91,0.81,1.14,1.13,0.99

# Record cards, from the list above. Values in the order: growth ([1]; 1 µM)	growth ([1]; 10 µM)	growth ([2]; 1 µM)	growth ([2]; 10 µM)	growth ([3]; 1 µM)	growth ([3]; 10 µM)
# `O=C(O[C@H]1CN2CCC1CC2)N1CCc2ccccc2[C@@H]1c1ccccc1` [Solifenacin succinate] reads 0.87	1.02	1.08	0.81	0.86	0.99
# `CCC1=C[C@@H]2CN(C1)Cc1c([nH]c3ccccc13)[C@@](C(=O)OC)(c1cc3c(cc1OC)N(C)[C@H]1[C@@](O)(C(=O)OC)[C@H](OC(C)=O)[C@]4(CC)C=CCN5CC[C@]31[C@@H]54)C2` [Vinorelbine Tartrate] reads 0.99	0.94	1.12	0.8	0.72	0.85
